Results are given in words; binding and its absence hold for the method and conditions named. In cells and extracts the contact can be indirect. Some entries that bind do so weakly or less than the wild type. For part of these data: Where a sequence is shown, tags or fusion partners need not be part of it.
Experiments:
SFB-YTHDF1-WT = target: T1, SFB-YTHDF1-WT (UniProt Q9BYJ9); assay: co-IP
T1 sequence: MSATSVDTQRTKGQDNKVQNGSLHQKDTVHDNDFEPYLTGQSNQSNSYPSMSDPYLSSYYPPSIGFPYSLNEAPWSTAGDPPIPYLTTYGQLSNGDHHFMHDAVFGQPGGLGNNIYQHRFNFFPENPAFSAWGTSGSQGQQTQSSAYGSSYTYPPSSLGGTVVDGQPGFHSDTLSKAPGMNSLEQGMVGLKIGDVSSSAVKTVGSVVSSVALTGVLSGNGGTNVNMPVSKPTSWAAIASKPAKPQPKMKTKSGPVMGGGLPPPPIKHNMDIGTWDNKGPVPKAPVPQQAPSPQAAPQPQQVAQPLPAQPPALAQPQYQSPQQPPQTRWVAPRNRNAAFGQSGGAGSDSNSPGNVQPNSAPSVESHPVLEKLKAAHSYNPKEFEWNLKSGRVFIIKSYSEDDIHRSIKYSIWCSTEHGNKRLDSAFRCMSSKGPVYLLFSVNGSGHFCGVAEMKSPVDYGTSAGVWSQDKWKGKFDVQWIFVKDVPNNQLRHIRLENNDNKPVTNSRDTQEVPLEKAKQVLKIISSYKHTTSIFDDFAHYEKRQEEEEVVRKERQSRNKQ

Sequences of proteins named here, by UniProt entry; tags and fusion partners are left off.
UniProt O14980: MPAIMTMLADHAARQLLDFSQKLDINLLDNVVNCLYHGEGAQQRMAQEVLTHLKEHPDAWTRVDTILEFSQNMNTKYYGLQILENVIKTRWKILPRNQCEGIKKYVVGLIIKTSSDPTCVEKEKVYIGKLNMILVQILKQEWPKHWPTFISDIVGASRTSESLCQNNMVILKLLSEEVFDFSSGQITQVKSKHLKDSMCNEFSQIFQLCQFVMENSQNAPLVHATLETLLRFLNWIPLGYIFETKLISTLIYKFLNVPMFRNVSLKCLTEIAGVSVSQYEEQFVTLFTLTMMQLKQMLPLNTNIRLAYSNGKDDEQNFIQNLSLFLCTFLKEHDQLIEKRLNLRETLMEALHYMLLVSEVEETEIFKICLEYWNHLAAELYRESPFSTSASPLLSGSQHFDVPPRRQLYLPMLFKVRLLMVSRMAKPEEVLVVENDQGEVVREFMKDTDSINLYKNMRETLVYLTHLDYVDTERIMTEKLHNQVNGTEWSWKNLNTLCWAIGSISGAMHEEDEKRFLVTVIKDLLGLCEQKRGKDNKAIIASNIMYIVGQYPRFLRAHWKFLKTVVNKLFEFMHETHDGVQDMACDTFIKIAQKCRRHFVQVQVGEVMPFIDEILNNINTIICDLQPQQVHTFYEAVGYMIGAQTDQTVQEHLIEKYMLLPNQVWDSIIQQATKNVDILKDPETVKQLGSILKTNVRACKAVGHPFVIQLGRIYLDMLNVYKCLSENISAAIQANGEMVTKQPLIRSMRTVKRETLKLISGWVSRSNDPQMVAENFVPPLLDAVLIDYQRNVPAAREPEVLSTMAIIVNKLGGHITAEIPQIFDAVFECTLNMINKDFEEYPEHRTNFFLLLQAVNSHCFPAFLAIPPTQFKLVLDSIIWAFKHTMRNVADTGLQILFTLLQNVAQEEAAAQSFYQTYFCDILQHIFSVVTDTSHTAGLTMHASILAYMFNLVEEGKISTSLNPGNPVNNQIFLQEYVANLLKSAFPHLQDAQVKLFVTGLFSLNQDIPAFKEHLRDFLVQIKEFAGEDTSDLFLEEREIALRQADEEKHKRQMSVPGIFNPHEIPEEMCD

[1] = target: T2, endogenous YTHDF1 (human (endogenous in HeLa)) (UniProt Q9BYJ9); assay: co-IP
T2 sequence: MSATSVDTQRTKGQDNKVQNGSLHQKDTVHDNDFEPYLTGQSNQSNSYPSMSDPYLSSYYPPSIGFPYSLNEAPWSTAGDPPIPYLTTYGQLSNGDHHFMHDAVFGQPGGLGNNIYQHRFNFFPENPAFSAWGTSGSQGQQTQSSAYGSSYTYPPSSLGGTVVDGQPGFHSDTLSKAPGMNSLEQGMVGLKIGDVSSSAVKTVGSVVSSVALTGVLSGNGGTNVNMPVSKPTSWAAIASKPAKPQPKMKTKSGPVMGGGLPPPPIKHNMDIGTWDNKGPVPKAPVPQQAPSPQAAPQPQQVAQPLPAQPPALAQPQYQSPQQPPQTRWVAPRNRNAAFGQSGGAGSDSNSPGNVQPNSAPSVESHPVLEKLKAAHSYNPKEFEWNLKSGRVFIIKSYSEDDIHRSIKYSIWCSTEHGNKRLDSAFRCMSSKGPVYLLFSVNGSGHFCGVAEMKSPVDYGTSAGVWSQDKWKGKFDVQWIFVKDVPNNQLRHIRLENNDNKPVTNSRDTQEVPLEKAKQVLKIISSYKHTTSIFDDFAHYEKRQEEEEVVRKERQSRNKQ

Flag-YTHDF1 = target: T3, Flag-YTHDF1 (UniProt Q9BYJ9); assay: co-IP
T3 sequence: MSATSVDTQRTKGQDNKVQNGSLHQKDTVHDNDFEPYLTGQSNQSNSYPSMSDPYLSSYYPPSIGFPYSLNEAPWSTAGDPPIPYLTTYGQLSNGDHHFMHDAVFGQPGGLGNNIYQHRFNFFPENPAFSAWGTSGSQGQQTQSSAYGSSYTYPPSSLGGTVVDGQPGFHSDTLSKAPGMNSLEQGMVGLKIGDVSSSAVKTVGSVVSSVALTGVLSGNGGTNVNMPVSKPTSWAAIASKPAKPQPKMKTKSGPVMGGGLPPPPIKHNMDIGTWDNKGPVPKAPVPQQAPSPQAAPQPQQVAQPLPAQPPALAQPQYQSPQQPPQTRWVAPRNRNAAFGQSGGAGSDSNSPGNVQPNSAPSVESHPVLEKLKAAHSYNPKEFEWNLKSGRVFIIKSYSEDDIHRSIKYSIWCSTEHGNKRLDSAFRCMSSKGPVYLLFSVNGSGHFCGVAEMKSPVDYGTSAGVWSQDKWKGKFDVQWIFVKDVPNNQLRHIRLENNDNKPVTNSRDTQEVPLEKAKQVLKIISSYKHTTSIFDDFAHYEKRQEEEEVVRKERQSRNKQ

recombinant GST-YTHDF1 = target: T4, recombinant GST-YTHDF1 (UniProt Q9BYJ9); assay: pull-down
T4 sequence: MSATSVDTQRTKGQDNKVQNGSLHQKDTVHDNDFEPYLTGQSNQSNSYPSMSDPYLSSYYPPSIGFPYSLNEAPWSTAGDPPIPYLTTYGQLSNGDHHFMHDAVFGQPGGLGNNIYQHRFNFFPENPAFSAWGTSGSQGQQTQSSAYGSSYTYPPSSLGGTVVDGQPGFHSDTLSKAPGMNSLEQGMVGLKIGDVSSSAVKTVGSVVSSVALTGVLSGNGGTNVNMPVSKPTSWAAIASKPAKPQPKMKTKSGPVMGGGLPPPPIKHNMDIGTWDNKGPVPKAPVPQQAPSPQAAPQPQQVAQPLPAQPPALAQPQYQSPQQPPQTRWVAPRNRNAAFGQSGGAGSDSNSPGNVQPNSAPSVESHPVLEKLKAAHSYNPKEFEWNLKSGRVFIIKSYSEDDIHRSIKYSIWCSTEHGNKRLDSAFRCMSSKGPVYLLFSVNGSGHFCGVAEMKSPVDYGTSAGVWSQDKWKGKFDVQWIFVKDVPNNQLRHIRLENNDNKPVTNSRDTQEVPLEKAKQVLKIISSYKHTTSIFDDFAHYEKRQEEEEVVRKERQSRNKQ

[2] = target: T5, endogenous OGT (human (endogenous in HeLa)) (UniProt O15294); assay: co-IP
T5 sequence: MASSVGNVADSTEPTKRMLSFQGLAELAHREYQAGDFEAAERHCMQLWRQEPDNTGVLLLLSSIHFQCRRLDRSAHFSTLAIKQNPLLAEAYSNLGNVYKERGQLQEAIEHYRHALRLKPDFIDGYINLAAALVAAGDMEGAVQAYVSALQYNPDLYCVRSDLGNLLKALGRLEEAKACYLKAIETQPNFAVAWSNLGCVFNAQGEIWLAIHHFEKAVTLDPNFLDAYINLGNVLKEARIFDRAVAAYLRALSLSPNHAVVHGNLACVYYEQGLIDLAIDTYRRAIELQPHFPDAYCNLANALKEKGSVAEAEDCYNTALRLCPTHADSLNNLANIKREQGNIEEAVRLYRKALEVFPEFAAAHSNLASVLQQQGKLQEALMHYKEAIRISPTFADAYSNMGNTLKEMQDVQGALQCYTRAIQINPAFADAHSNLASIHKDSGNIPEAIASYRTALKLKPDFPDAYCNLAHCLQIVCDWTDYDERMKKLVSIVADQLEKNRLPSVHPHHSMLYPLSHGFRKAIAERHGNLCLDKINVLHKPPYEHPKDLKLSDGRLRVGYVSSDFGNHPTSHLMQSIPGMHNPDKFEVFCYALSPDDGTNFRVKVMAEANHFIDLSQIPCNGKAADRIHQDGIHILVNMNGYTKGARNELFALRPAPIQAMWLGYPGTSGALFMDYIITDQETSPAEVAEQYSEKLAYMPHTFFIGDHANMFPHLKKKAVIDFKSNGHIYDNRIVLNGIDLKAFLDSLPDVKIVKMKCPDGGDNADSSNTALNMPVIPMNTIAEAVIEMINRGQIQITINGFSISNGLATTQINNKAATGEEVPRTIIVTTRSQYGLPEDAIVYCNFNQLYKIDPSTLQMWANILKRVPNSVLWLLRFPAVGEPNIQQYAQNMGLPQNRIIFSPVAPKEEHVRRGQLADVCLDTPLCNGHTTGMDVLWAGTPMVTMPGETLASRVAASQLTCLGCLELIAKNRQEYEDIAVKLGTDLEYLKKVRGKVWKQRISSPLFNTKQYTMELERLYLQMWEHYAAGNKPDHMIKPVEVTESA

Q: HA-CRM1 (from UniProt O14980 1-1071) was tested. Which binding (SFB-YTHDF1-WT) did it give?
A: binds

Q: With “endogenous Crm1 (from UniProt O14980 1-1071)” as the molecule, how does the binding [1] read?
A: binds

B1: HA-OGT (enzyme, UniProt O15294 1-1046)
chain: MASSVGNVADSTEPTKRMLSFQGLAELAHREYQAGDFEAAERHCMQLWRQEPDNTGVLLLLSSIHFQCRRLDRSAHFSTLAIKQNPLLAEAYSNLGNVYKERGQLQEAIEHYRHALRLKPDFIDGYINLAAALVAAGDMEGAVQAYVSALQYNPDLYCVRSDLGNLLKALGRLEEAKACYLKAIETQPNFAVAWSNLGCVFNAQGEIWLAIHHFEKAVTLDPNFLDAYINLGNVLKEARIFDRAVAAYLRALSLSPNHAVVHGNLACVYYEQGLIDLAIDTYRRAIELQPHFPDAYCNLANALKEKGSVAEAEDCYNTALRLCPTHADSLNNLANIKREQGNIEEAVRLYRKALEVFPEFAAAHSNLASVLQQQGKLQEALMHYKEAIRISPTFADAYSNMGNTLKEMQDVQGALQCYTRAIQINPAFADAHSNLASIHKDSGNIPEAIASYRTALKLKPDFPDAYCNLAHCLQIVCDWTDYDERMKKLVSIVADQLEKNRLPSVHPHHSMLYPLSHGFRKAIAERHGNLCLDKINVLHKPPYEHPKDLKLSDGRLRVGYVSSDFGNHPTSHLMQSIPGMHNPDKFEVFCYALSPDDGTNFRVKVMAEANHFIDLSQIPCNGKAADRIHQDGIHILVNMNGYTKGARNELFALRPAPIQAMWLGYPGTSGALFMDYIITDQETSPAEVAEQYSEKLAYMPHTFFIGDHANMFPHLKKKAVIDFKSNGHIYDNRIVLNGIDLKAFLDSLPDVKIVKMKCPDGGDNADSSNTALNMPVIPMNTIAEAVIEMINRGQIQITINGFSISNGLATTQINNKAATGEEVPRTIIVTTRSQYGLPEDAIVYCNFNQLYKIDPSTLQMWANILKRVPNSVLWLLRFPAVGEPNIQQYAQNMGLPQNRIIFSPVAPKEEHVRRGQLADVCLDTPLCNGHTTGMDVLWAGTPMVTMPGETLASRVAASQLTCLGCLELIAKNRQEYEDIAVKLGTDLEYLKKVRGKVWKQRISSPLFNTKQYTMELERLYLQMWEHYAAGNKPDHMIKPVEVTESA
Q: B1 was tested. Which binding (Flag-YTHDF1) did it give?
A: binds

Q: What about the binding (recombinant GST-YTHDF1) of the same molecule?
A: binds

B2: endogenous YTHDF1 (protein, UniProt Q9BYJ9 1-559)
chain: MSATSVDTQRTKGQDNKVQNGSLHQKDTVHDNDFEPYLTGQSNQSNSYPSMSDPYLSSYYPPSIGFPYSLNEAPWSTAGDPPIPYLTTYGQLSNGDHHFMHDAVFGQPGGLGNNIYQHRFNFFPENPAFSAWGTSGSQGQQTQSSAYGSSYTYPPSSLGGTVVDGQPGFHSDTLSKAPGMNSLEQGMVGLKIGDVSSSAVKTVGSVVSSVALTGVLSGNGGTNVNMPVSKPTSWAAIASKPAKPQPKMKTKSGPVMGGGLPPPPIKHNMDIGTWDNKGPVPKAPVPQQAPSPQAAPQPQQVAQPLPAQPPALAQPQYQSPQQPPQTRWVAPRNRNAAFGQSGGAGSDSNSPGNVQPNSAPSVESHPVLEKLKAAHSYNPKEFEWNLKSGRVFIIKSYSEDDIHRSIKYSIWCSTEHGNKRLDSAFRCMSSKGPVYLLFSVNGSGHFCGVAEMKSPVDYGTSAGVWSQDKWKGKFDVQWIFVKDVPNNQLRHIRLENNDNKPVTNSRDTQEVPLEKAKQVLKIISSYKHTTSIFDDFAHYEKRQEEEEVVRKERQSRNKQ
Q: How did the binding [2] turn out when B2 was run?
A: binds

B3: recombinant His-OGT (enzyme, UniProt O15294 1-1046)
chain: MASSVGNVADSTEPTKRMLSFQGLAELAHREYQAGDFEAAERHCMQLWRQEPDNTGVLLLLSSIHFQCRRLDRSAHFSTLAIKQNPLLAEAYSNLGNVYKERGQLQEAIEHYRHALRLKPDFIDGYINLAAALVAAGDMEGAVQAYVSALQYNPDLYCVRSDLGNLLKALGRLEEAKACYLKAIETQPNFAVAWSNLGCVFNAQGEIWLAIHHFEKAVTLDPNFLDAYINLGNVLKEARIFDRAVAAYLRALSLSPNHAVVHGNLACVYYEQGLIDLAIDTYRRAIELQPHFPDAYCNLANALKEKGSVAEAEDCYNTALRLCPTHADSLNNLANIKREQGNIEEAVRLYRKALEVFPEFAAAHSNLASVLQQQGKLQEALMHYKEAIRISPTFADAYSNMGNTLKEMQDVQGALQCYTRAIQINPAFADAHSNLASIHKDSGNIPEAIASYRTALKLKPDFPDAYCNLAHCLQIVCDWTDYDERMKKLVSIVADQLEKNRLPSVHPHHSMLYPLSHGFRKAIAERHGNLCLDKINVLHKPPYEHPKDLKLSDGRLRVGYVSSDFGNHPTSHLMQSIPGMHNPDKFEVFCYALSPDDGTNFRVKVMAEANHFIDLSQIPCNGKAADRIHQDGIHILVNMNGYTKGARNELFALRPAPIQAMWLGYPGTSGALFMDYIITDQETSPAEVAEQYSEKLAYMPHTFFIGDHANMFPHLKKKAVIDFKSNGHIYDNRIVLNGIDLKAFLDSLPDVKIVKMKCPDGGDNADSSNTALNMPVIPMNTIAEAVIEMINRGQIQITINGFSISNGLATTQINNKAATGEEVPRTIIVTTRSQYGLPEDAIVYCNFNQLYKIDPSTLQMWANILKRVPNSVLWLLRFPAVGEPNIQQYAQNMGLPQNRIIFSPVAPKEEHVRRGQLADVCLDTPLCNGHTTGMDVLWAGTPMVTMPGETLASRVAASQLTCLGCLELIAKNRQEYEDIAVKLGTDLEYLKKVRGKVWKQRISSPLFNTKQYTMELERLYLQMWEHYAAGNKPDHMIKPVEVTESA
Q: With B3 as the molecule, how does the binding (recombinant GST-YTHDF1) read?
A: binds
